Our source for the median seed-adjusted z-score values is PubChem BioAssay AID1347426 (Functional Genomics Laboratory (NCATS/FGL), 2020).

Among all 31,000 sequences or so, about 1,400 (4.5%) were called active.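 How the source made its calls: active means median seed-adjusted z-score above 1 or below -1; inactive means the rest.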 This is one part of the list.

The test can be described thus: Novel Modifiers of Survival Motor Neuron (SMN) Protein: Gene Identification via Genome-wide siRNA Screen.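 Further: luminescence tracks full-length SMN protein made from the SMN2 reporter.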 The note with it: HEK293T SMN2-luciferase reporter, siRNA knockdown, 72 h; actives lie on both sides. An outline of the steps: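 Genome-wide siRNA screen (10418 genes, 3 siRNAs each, 1 pmol per well) by reverse transfection in HEK293T cells stably carrying an SMN2-luciferase reporter; luminescence after 72 hours, normalized to negative-control siRNA, log10-transformed, MAD-scored.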
As to GGCAGUUGAAGAUAUAGAATT against PRDM5, the median seed-adjusted z-score was inactive: -0.463.
Take GAGUGGGAAUGGUCAGGCUTT against ADORA2B: the median seed-adjusted z-score was inactive: -0.471.
In the case of CAAACUUCCCGAUAGAGAATT against CTDP1, the median seed-adjusted z-score is active: -2.29.
For the sequence CAAGAACACUCCUCGAGUATT against ZNF823, the median seed-adjusted z-score is inactive: 0.143.
On to CCGUUUACCUGCUCUAUAATT against OTUB2, for which the median seed-adjusted z-score was inactive: 0.513.
Consider GGAUUGAAAACUUCAUCAATT against GLUD2, for which the median seed-adjusted z-score is inactive: -0.0225.
For CAAGGGCACAGGCACAAAATT against SBK1, the median seed-adjusted z-score was inactive: 0.0587.
GAGUAUCUCUGAAACCUCUTT against IL1A: the median seed-adjusted z-score is active: 1.12.
For the sequence GCCGUGUCUAUUCCAUCUATT against CAV1, the median seed-adjusted z-score was inactive: 0.
Regarding GGAGAGCAGAGUACUCAAATT against MORF4L1, the median seed-adjusted z-score is inactive: 0.225.
As for GCAUGGGAACAACUACAAATT against TTPA, the figure is inactive: -0.208.
As to CCAUCUAUUCUGCAACCAATT against HSD17B12, the median seed-adjusted z-score was inactive: 0.0719.
As for AAGAGAGACUUAAGAUGAATT against SPRR1B, the figure is inactive: -0.721.
For the sequence GGUGCUGAAUGUGGAGUAATT against DNAJC3, the median seed-adjusted z-score was inactive: 0.502.
The figure for GAUAAAAGGUUACAAACGATT against HIF1AN is inactive: -0.0315; for UGACCUACGAUGAAUUUAATT against APOBEC3A it is inactive: 0.467.
Regarding GGCUGUCAGUAAACAACAATT against CCNF, the median seed-adjusted z-score is inactive: -0.435.
For GAAAAUGAGAGUGAACCAATT against WBP5, the median seed-adjusted z-score was inactive: 0.452.
Regarding CAGUUAUACCCAUAAGAAATT against ZNF180, the median seed-adjusted z-score is inactive: 0.
In the case of CCUAUGGACUGAACAGGGATT against ZDHHC3, the median seed-adjusted z-score was inactive: 0.229.
As for GGAUGGUCCUGGAAAGUAUTT against USP5, the figure is inactive: 0.596; as for GCUCAGAUGUUAUUCGGGATT against SKIV2L, inactive: 0.209; as for GCCUAAUGAUCCGACUUUATT against ABCA12, inactive: 0.0759.
For GGAUCACACCUACGACCUUTT against GPR112, the median seed-adjusted z-score is inactive: 0.
With CGAAGAGUAUUUGACCAAATT against BAG3, the median seed-adjusted z-score was inactive: -0.443.
For CCUACAAGUUUAUUCGGGATT against GPR173, the median seed-adjusted z-score was inactive: -0.147.
In the case of GGCCUGAUUUCAAACGAAATT against ABHD5, the median seed-adjusted z-score was inactive: 0.131.
Regarding GCUAUGGAGUGAUUGAACATT against HERC3, the median seed-adjusted z-score is inactive: -0.0884.
On to GCUUCCAGGUGUACUGUGATT against FIBCD1, for which the median seed-adjusted z-score was inactive: -0.0249.
Consider GGAUUGACCAGUUAACCAATT against SLC40A1, for which the median seed-adjusted z-score is inactive: -0.177.
As to CAACAGCGAUGAUUACAGUTT against SRY, the median seed-adjusted z-score is inactive: -0.949.
For the sequence GGUUGCUACGGGAACAAUATT against ARSD, the median seed-adjusted z-score is inactive: -0.447.
On to AGGUACUACUUAUCGAGAATT against GPX1, for which the median seed-adjusted z-score is inactive: -0.0529.
Regarding GAAGAACUGUUCAACUGUATT against UPP2, the median seed-adjusted z-score is inactive: 0.586.
Take GCACACUUGAGUUUGUGUATT against HES6: the median seed-adjusted z-score was inactive: 0.71.
On to UCCUUAUGGUUUUACACGATT against AMY2B, for which the median seed-adjusted z-score is inactive: -0.564.
As for CAAUGAUAGAUGAUCUAAATT against DZIP1, the median seed-adjusted z-score is inactive: -0.138.
For GGAACAACUUAAUCAGUAUTT against TNPO1, the median seed-adjusted z-score was inactive: 0.688.
Turning to GCUUUGUGAACGACAAUUATT against RABGGTB, the median seed-adjusted z-score is inactive: -0.856.
As for UGGUGACCAUGGACGUGGATT against ANAPC2, the figure is inactive: -0.116; as for GCCCAGGGCAUUACACUGATT against TENC1, inactive: 0.892.
On to GAAGGUGGAUUGCAACAAATT against GPX6, for which the median seed-adjusted z-score was inactive: 0.35.
As for AGAUCUCGGCUUUGGAUAUTT against ACPT, the figure is inactive: -0.114; as for GCACGUUAAGAAGCCCGAATT against TRMU, inactive: 0.0312.
Turning to GCAUAGUGCUUGUACUAUUTT against SLC9A8, the median seed-adjusted z-score was inactive: 0.367.
For the sequence UGCUCUACAUCAACCCUGATT against FSHR, the median seed-adjusted z-score was inactive: -0.462.
For GGCACCCAUUGAUAAGAAATT against MYL9, the median seed-adjusted z-score was inactive: 0.571.
On to UGCUUAUUCCUCACACUUATT against DDO, for which the median seed-adjusted z-score is inactive: -0.202.
As to CUGUUAUUCUUCAUACCUATT against TAAR8, the median seed-adjusted z-score is inactive: 0.0792.
As for CCAUAUAGCAGAUUAGAUUTT against LIPI, the figure is inactive: 0.65; as for GGAUAAUAAGGGAACGGGATT against ALDH9A1, inactive: -0.297.
CAAUGAGACUUACUAUGGUTT against SLC2A5: the median seed-adjusted z-score is inactive: -0.429.
Take GGAUGCAAUUGAAGCUCAUTT against ATG5: the median seed-adjusted z-score is inactive: -0.0597.
For GGAUCUCAAUCUAGCAGUATT against JARID1D, the median seed-adjusted z-score was inactive: 0.293.
For GGCUAACUACUGAGCUGAATT against C1RL, the median seed-adjusted z-score is inactive: -0.148.
As for GGAGCUGGGUUAUCCAAGATT against PPP1R1B, the figure is inactive: -0.354.
Regarding UGGACUUGGUGUGCAUUAATT against GFOD1, the median seed-adjusted z-score is inactive: 0.923.
For the sequence GGGCUUCGGUUACUGCUUUTT against LTBP4, the median seed-adjusted z-score is inactive: 0.19.
Take CGACCAAAUGUGAAAUGGATT against VPS4B: the median seed-adjusted z-score is inactive: -0.0992.
Take GGUUCGACAAGUUCAAAUATT against EEF1D: the median seed-adjusted z-score is inactive: 0.421.
With CAACAUUUCGAUGCUCCUATT against GPR135, the median seed-adjusted z-score was inactive: 0.546.
Turning to ACAUCUCAGAGAUCGAAGATT against ST8SIA2, the median seed-adjusted z-score was inactive: 0.516.
For the sequence GGAAUAACACGAUCGUGAATT against GAA, the median seed-adjusted z-score is inactive: 0.756.
As for GAAAUCGACUCUCACCAAATT against IL18RAP, the figure is inactive: -0.681; as for GAAGUAAAAUCUGUCGAAATT against EEF1A1, inactive: -0.755.
The figure for GCAACCUGCUCGAUCUGAATT against AP1B1 is inactive: -0.161.
For CGGUCUAUGGUGGUCCAAATT against RBM16, the median seed-adjusted z-score was inactive: 0.279.
With GAAGAACUCGAUCAGCUAATT against MYH4, the median seed-adjusted z-score is active: -1.8.
CCUGUACCCUUGCAAGAAATT against PTAFR: the median seed-adjusted z-score is inactive: 0.302.
Regarding CCAGUGUGCUCGUUACGUUTT against SLC25A33, the median seed-adjusted z-score was inactive: -0.0252.
Take GCUACAAGGAGAUCCGGAATT against CHGA: the median seed-adjusted z-score is inactive: -0.0235.
As for CAAAGAAGCUUUUUCACUATT against CALM2, the median seed-adjusted z-score was inactive: 0.127.
As to GGCUUUUAGAGUACGACAATT against ZFP30, the median seed-adjusted z-score was inactive: 0.211.
As for GAGUCCCUGUUCGUACUUATT against CDK2, the figure is inactive: -0.347; as for GGACUUAGUAUAAUGUGAATT against NDUFA2, inactive: -0.694; as for GAGUAUGGAUGUUUCCGUATT against HOXC13, inactive: -0.318.
On to GGAACUCAGUGGUCCUCAATT against ALDH3A1, for which the median seed-adjusted z-score is inactive: -0.486.
The figure for ACCUAUUGGAUGCUAAAUATT against SVOPL is inactive: 0.439; for CAGAUGAUAUGGUUAGUGATT against UNC13C it is inactive: -0.136.
For CACUCACACCAACCUGUGATT against GNG13, the median seed-adjusted z-score was inactive: -0.516.
Take CCACUGUGAUUGCUGUCAATT against DGAT2L4: the median seed-adjusted z-score was inactive: 0.145.
For the sequence GGUAUGAGGUUGACUCAUUTT against IFNAR1, the median seed-adjusted z-score was inactive: 0.0327.
Take GACGUGAGCCGAUCAUUAATT against PROCA1: the median seed-adjusted z-score is inactive: -0.502.
For CUACUUGAGUAGACGAUGATT against THAP8, the median seed-adjusted z-score is inactive: -0.872.
Turning to GGCGGAGUAUGGAAAGUUATT against UBE2H, the median seed-adjusted z-score was inactive: 0.
Consider GGCGAAAUCGUGCUGAUUATT against HSD17B11, for which the median seed-adjusted z-score was inactive: 0.379.
On to CAGCAGCCGUGUUCACAAATT against ALDH1A3, for which the median seed-adjusted z-score was inactive: 0.228.
Take GUCACUAAACCAUAUGUUUTT against GLULD1: the median seed-adjusted z-score is inactive: -0.332.
Consider CCUCAUCUGUUCGACCGAATT against TLK1, for which the median seed-adjusted z-score is inactive: -0.0133.
As for GCAACCCUCUGUUUCAGGATT against MTG1, the figure is inactive: -0.19; as for GUAAUUAGCUCAAACAAAATT against GNG7, inactive: -0.205.
For the sequence GUAACUUCCCUGAUCCAGATT against YOD1, the median seed-adjusted z-score is inactive: 0.216.
As for GGAGGCUCGUCACCAACUUTT against DERL3, the figure is inactive: 0.043; as for AGGCCAUGAUUCGCCCAAATT against NGFR, inactive: -0.0846.
For GAAGGUUGAUGACCGAUUUTT against INPP5F, the median seed-adjusted z-score was inactive: 0.118.
The figure for CAGCGAUUGGUGUGACAAATT against STX16 is inactive: -0.569.
The figure for GGUUAAUAGUGAUAGUUGATT against TMEM1 is inactive: -0.191; for GGAUUGGAUUAGAUGCAAATT against DGKH it is inactive: 0.13; for GCUUUCACCUGAUAGAUCATT against MTF1 it is inactive: -0.709.
For CUACGACAAGGAACAGACATT against CA4, the median seed-adjusted z-score was inactive: 0.0549.
On to UGUACGACCUUGUAUCGGATT against KCNN1, for which the median seed-adjusted z-score is inactive: -0.347.
As for AGAUUUGACGUGUCCAUUUTT against RFPL1, the figure is inactive: 0.195.
As for GAACUGUGCAAAUACCACATT against IFNAR2, the median seed-adjusted z-score is inactive: -0.219.
For the sequence CCUUCGACCCAUACUAUUATT against SCN10A, the median seed-adjusted z-score is inactive: -0.401.
As for GCGAGUUGUUUCUAUAGUATT against GPR22, the median seed-adjusted z-score is inactive: 0.705.
With CAACAGCCUUCAGUCCGUGTT against GP9, the median seed-adjusted z-score was inactive: -0.88.
On to CGCAAACAGUGCAACCACATT against PPP2R5B, for which the median seed-adjusted z-score was inactive: 0.237.
